Values quoted from earlier work in US7230011B2, “Benzenesulfonic acid indol-5-yl esters as antagonists of the 5ht6 receptor” (Eli Lilly and Company, priority 2002, dated 2007).
At least one structure is not confirmed: it was looked up by name or label, or the drawing left a doubt.

Test system: schizophrenics
Conditions: cited from earlier work

In the case of CN1CCN(C2=Nc3cc(Cl)ccc3Nc3ccccc32)CC1 [clozapine], the “improving cognitive function versus placebo” value (non-treatment resistant schizophrenics, six months to 12 months) is given as “more effective than placebo”, the cognitive effect (treatment resistant schizophrenics, small trial (N=15), Goldberg et al.) is given as “no beneficial cognitive effect” and the neuropsychological function (treatment-resistant schizophrenics (N=36), six weeks and six months, Meltzer et al) is given as “improvements in several domains of neuropsychological function”.
